Laboratory results published in patent publication US9764001B2, “Target for diagnosis and treatment of diabetes and cardiovascular diseases” (The Regents of the University of California, priority 2012, dated 2017).
At least one compound was matched to its structure with a doubt left.

Key:
[1] = system: Min6 cells; experiment: Intracellular calcium level measurement (fura-2) in Min6 cells; format: cell-based, mouse; conditions: nimodipine 10 μM
[2] = system: Min6 cells; experiment: Akt phosphorylation Western blot in Min6 cells; format: cell-based, mouse; conditions: Wortmannin 10 μM
[3] = system: primary mouse islets; experiment: Static GSIS test using primary mouse islets; format: cell-based; conditions: FKN 100 ng/ml; PTX 250 ng/ml, Wortmannin 10 μM, PD98059 50 μM
[4] = system: Min6 cells; experiment: Palmitate-induced beta cell apoptosis (caspase-3/7 activity) in Min6 cells; format: cell-based, mouse; conditions: Wortmannin 10 μM, palmitate 0.4 mM, FKN 100 ng/ml, 48 h

| Compound | effect on glucose- and FKN-induced intracellular calcium increase [1] | effect on FKN-stimulated Akt phosphorylation [2] | effect of inhibitor on FKN-stimulated insulin secretion [3] | effect on preventative effect of FKN against palmitate-induced apoptosis [4] |
| --- | --- | --- | --- | --- |
| COCCOC(=O)C1=C(C)NC(C)=C(C(=O)OC(C)C)C1c1cccc([N+](=O)[O-])c1 (stereo not shown) [nimodipine] | blocked | – | – | – |
| COC[C@H]1OC(=O)c2coc3c2[C@@]1(C)C1=C(C3=O)[C@@H]2CCC(=O)[C@@]2(C)C[C@H]1OC(C)=O [Wortmannin] | – | inhibited | not | inhibited |
